Reference: the RNAGym collection of RNA variant scans (doi:10.1126/science.aae0568)
This sample is rich in variants without activity.

B1: tRNA (parent)
chain: GUUCCGUUGGCGUAAUGGUAACGCGUCUCCCUCCUAAGGAGAAGACUGCGGGUUCGAGUCCCGUACGGAACG

Variants of: B1
Assay: yeast fitness relative to wild type (ratio to wild type); higher = fitter; tRNA-Arg(CCU), competitive growth, 37 C, YPD
Outline: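 Changes in genotype frequencies gave Darwinian fitness relative to wild type. Frequencies were read by 100-nucleotide paired-end sequencing of gene amplicons before and after pooled Saccharomyces cerevisiae strains, carrying tRNA-Arg(CCU) gene variants at the native locus, were competed in YPD at 37°C for 24 hours in six replicates. A genotype was kept only with ≥ 100 starting reads, and estimates < 0.5 were set to 0.5.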

Variant	yeast fitness
U3G C4A C62A	≤ 0.5
U3G C4A G9A C22U A36C	≤ 0.5
U3G C4G C27U A70C	≤ 0.5
U3G C4U U35A A57G	≤ 0.5
U3G C5G A20C A43C	0.557
U3G C5G G10A C30G C31G C49A C60U G67A	≤ 0.5
U3G C5U G10A C55U	≤ 0.5
U3G C5U G10A G18C C24U A45C	0.553
U3G C5U U26A C31A G38A C55A C66U	≤ 0.5
U3G C5U U26A G67C	≤ 0.5
U3G C11G U13A C30G A70G	≤ 0.5
U3G C11U U19C A20U A42C C49U G56C	≤ 0.5
U3G C11U U19C A20U A42C G63A A65C A69U	≤ 0.5
U3G C22A G50A	≤ 0.5
U3G C22G U32G A43G	≤ 0.5
U3G C24G C30G	≤ 0.5
U3G C24U C49A C62U	≤ 0.5
U3G C30G U59G C66A	≤ 0.5
U3G C31G A37G C62U G63C	≤ 0.5
U3G C34G	≤ 0.5
U3G C55A A69C	≤ 0.5
U3G C55U G67C	≤ 0.5
U3G C62G	0.739
U3G G9U G18A A20G	≤ 0.5

Variant	yeast fitness
U3G G9U G18A A20G A36G	≤ 0.5
U3G G9U G18A A20G A69U	≤ 0.5
U3G G18A C30G G41U C49G C61G	≤ 0.5
U3G G18A C66A A70U	≤ 0.5
U3G G18A G68C	≤ 0.5
U3G G39A U53A	≤ 0.5
U3G U8A C27G G50A U64G	≤ 0.5
U3G U28A G63C	≤ 0.5
U3G U47C G51C	≤ 0.5
C4A A14G C46A G51A U53A C62A G68A	≤ 0.5
C4A A14G G17C	≤ 0.5
C4A A14U A20C U28G G68C	≤ 0.5
C4A A14U C29U G68A	≤ 0.5
C4A A14U C30A	≤ 0.5
C4A A14U C30G U53C C60A C61A C66G	≤ 0.5
C4A A15C C24G A45G	≤ 0.5
C4A A15C C27G C62G	≤ 0.5
C4A A15C C66U	≤ 0.5
C4A A15C U26G A65G	≤ 0.5
C4A A15G G56C A69U	≤ 0.5
C4A A15U A42C C46U C66G	≤ 0.5
C4A A20C A42C	≤ 0.5
C4A A20G A45U C46G C60A	≤ 0.5
C4A A20U G23A C66U	≤ 0.5

Variant	yeast fitness
C4A A21C C62G	≤ 0.5
C4A A21G C24G U26C C31U	≤ 0.5
C4A A21U C30U A45G C55A	≤ 0.5
C4A A36C A40G C49U	≤ 0.5
C4A A36C A57G A65U	≤ 0.5
C4A A36C C49U	≤ 0.5
C4A A36U A37C G38A U47C A70U	≤ 0.5
C4A A36U A37C U47C G68C	≤ 0.5
C4A A45G A57U	≤ 0.5
C4A A57G C61U	≤ 0.5
C4A C5G C22U	≤ 0.5
C4A C5G C24U G25A A57U	≤ 0.5
C4A C5G C61U	≤ 0.5
C4A C5U A20G U28A A37U C61U G63C A69U	≤ 0.5
C4A C5U C22U C34A G68A	≤ 0.5
C4A C5U C24G A45U C66U	≤ 0.5
C4A C5U G17A A70G	≤ 0.5
C4A C11G U13G G25A G58A	≤ 0.5
C4A C11U C33G A42C C49U C55G	≤ 0.5
C4A C11U U32A G38C U47A U53G	0.56
C4A C22G C29U C49A C55U	≤ 0.5
C4A C22G U32C G51A	≤ 0.5
C4A C22U U54A	0.685
C4A C24G C33G A36C A37C A42C A65U	≤ 0.5

Variant	yeast fitness
C4A C24G G38C	≤ 0.5
C4A C27A C31U A43G C61U A65C	≤ 0.5
C4A C27G C30U	≤ 0.5
C4A C27G C33G G41A	≤ 0.5
C4A C27G C60U A69U	≤ 0.5
C4A C29U C31U U54G A65U G67A	≤ 0.5
C4A C29U G50A C66A	≤ 0.5
C4A C30G A40U G44A G50A C55U C66U	≤ 0.5
C4A C30G G50A	≤ 0.5
C4A C30U A57G	≤ 0.5
C4A C31A A57U	≤ 0.5
C4A C31A G52C A65U	≤ 0.5
C4A C31G A40G A45G C46G G48A	≤ 0.5
C4A C31G A43U G48A A65G	≤ 0.5
C4A C33G G48A C66G A70C	≤ 0.5
C4A C33U A57G	≤ 0.5
C4A C34G A65C	≤ 0.5
C4A C49G C62U	≤ 0.5
C4A C49U C55A G63A C66U	≤ 0.5
C4A C55A C60A	≤ 0.5
C4A G6A A20G C46U A57G	≤ 0.5
C4A G9A G18C C22A A69C	≤ 0.5
C4A G9C C11G C30G	≤ 0.5
C4A G9C C11G G44A C60U G67C	≤ 0.5

Variant	yeast fitness
C4A G9C C11G U47C	≤ 0.5
C4A G10A A21G C22G	≤ 0.5
C4A G10A C29U C33U A42C	≤ 0.5
C4A G12A A45U	0.546
C4A G12A C33A C60A U64C	≤ 0.5
C4A G12C U19C C24G A43U	≤ 0.5
C4A G17A A42G C61G	≤ 0.5
C4A G17A C46G A65G	≤ 0.5
C4A G18C U35C	≤ 0.5
C4A G23A C33G	0.655
C4A G23C C27G U35G C62A	≤ 0.5
C4A G23C C34G A36U U54G C62G	≤ 0.5
C4A G41A C55U	≤ 0.5
C4A G41A C55U A70U	≤ 0.5
C4A G52A U53A G67U	≤ 0.5
C4A G68C	0.808
C4A U7A U8G A45C A65G C66G	≤ 0.5
C4A U7A U13A C30A	≤ 0.5
C4A U8C U13C A20G C31G G44C U54C A69U	≤ 0.5
C4A U8C U26C C27G C33G A37U G41A A57G C62G	≤ 0.5
C4A U13A A69C	≤ 0.5
C4A U13A C30A U32C C61G	≤ 0.5
C4A U13A C55U A69C	≤ 0.5
C4A U13A G18A A42G G52A C55G	≤ 0.5

Variant	yeast fitness
C4A U13G C30U	≤ 0.5
C4A U16C U35G A45U G51A	≤ 0.5
C4A U19A C27U	0.562
C4A U19G A70C	0.854
C4A U26A U32G U53A C62A G68C	≤ 0.5
C4A U26C U32A C34U G38C G51A A57C C66U	≤ 0.5
C4A U28A C30G U59C	≤ 0.5
C4A U28C	0.64
C4A U28C A57G C61A	≤ 0.5
C4A U32C U35C G48C C55U G56A A70G	≤ 0.5
C4A U54G A65U	≤ 0.5
C4G A14C A15C U28G C49G G63A	≤ 0.5
C4G A14C A20G G68A	≤ 0.5
C4G A14G C24G	≤ 0.5
C4G A14U C31U A40G A42G	≤ 0.5
C4G A14U C33G U47G A57G	≤ 0.5
C4G A14U C61G	≤ 0.5
C4G A14U G23A G48A	≤ 0.5
C4G A15C C46G G63C C66A	≤ 0.5
C4G A15G G17A C34A	≤ 0.5
C4G A15U A21G G44A	≤ 0.5
C4G A15U C33A G52C C55G	≤ 0.5
C4G A15U G23C	≤ 0.5
C4G A20G C22G C33U A36C A40U	≤ 0.5

Variant	yeast fitness
C4G A21C C22A C27G C34U G56A G67C	≤ 0.5
C4G A21C C27A U28G A69U	≤ 0.5
C4G A21C C49G	≤ 0.5
C4G A21G C24G C34A G48C	≤ 0.5
C4G A21U C31A C34U A69C	≤ 0.5
C4G A36G	0.939
C4G A37C C61A	≤ 0.5
C4G A37C U59G	≤ 0.5
C4G A40G C55U	≤ 0.5
C4G A40U A42C	≤ 0.5
C4G A40U A45U G51C G56C	≤ 0.5
C4G A40U U47A	≤ 0.5
C4G C5A A15G C33G C55G	≤ 0.5
C4G C5G C27G A36C C49A	≤ 0.5
C4G C5G C29A C34U A42U G50C G67A	≤ 0.5
C4G C5G U19A C31A U47A	≤ 0.5
C4G C5U C22G U64C	≤ 0.5
C4G C5U C55U	0.544
C4G C5U U54A	≤ 0.5
C4G C11A A14C C22G G25C G44A C61G	≤ 0.5
C4G C11A U32G	≤ 0.5
C4G C11A U35A C49U G67U	≤ 0.5
C4G C11G A21U A36U G58C A70C	≤ 0.5
